In PubChem BioAssay AID540303 (National Center for Advancing Translational Sciences (NCATS), 2011):
In all, about 330,000 compounds went through this assay and about 1,000 (0.3%) were called active. Inconclusive means that the source gave no clear call. Such entries were picked first, then a sample of the others. Calls follow the shape of the dose curve; as a rule, active = well fitted inhibition curve with a large enough effect; inconclusive = small, poorly fitted or top-dose-only effect; inactive = no such curve, though single readings can be large or run the other way; tested in mouse RAW 264.7 cells. Potencies of inconclusive entries are doubtful fits and often do not repeat.

experiment: qHTS for Inhibitors of Cell Surface uPA Generation; settings: cell surface uPA generation assay; series mostly up to 38.3 µM; also: nearly all actives have a fitted effect of over 55% in size
Summary of the method: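 Validation set in qHTS format. RAW 264.7 cells were pre-plated overnight and then exposed to compounds (up to 38.3 uM final) for 24 h at 37 C in 5% CO2, followed by a luminescent ATP-Lite measurement.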
Potency is read from the fitted curve at half-maximal effect.

Which Potency does the source give for `O=C(COC(=O)c1nc(Cl)c(Cl)c(Cl)c1Cl)NCc1ccccc1` here?
The Potency was inconclusive: 31.6 µM [inhibitor, single point].

For `Cc1noc(C)c1COc1ccccc1C(=O)N1CCN(c2cccc(Cl)c2)CC1`, which Potency is on record?
The Potency was inconclusive: 10 µM [inhibitor, partial curve, poor fit].

Which Potency does the source give for `CCc1ccc(/C=N/NC(=O)c2cc(-c3cccc([N+](=O)[O-])c3)n[nH]2)cc1` here?
Its Potency is “inactive”.

Which Potency does the source give for `COc1ccc(C(=O)Nc2ccc(N3CCN(C(=O)c4cccs4)CC3)cc2)cc1Br` here?
The Potency was inconclusive: 12.6 µM [inhibitor, single point].

Which Potency does the source give for `CC(C)c1ccc(N)c(S(=O)(=O)O)c1` here?
The Potency was inconclusive: 0.355 µM [inhibitor, partial curve, poor fit].

Which Potency does the source give for `Cc1cccc(N2CCN(C(=O)c3cccc(N4CCCC4=O)c3)C(C)C2)c1` (centres undefined) here?
The Potency was inconclusive: 1 µM [inhibitor, partial curve, poor fit].

With `Cc1noc(/C=C/N(C)C)c1S(=O)(=O)N1CCCC(C(=O)NC2CCCCC2C)C1` (centres undefined) as the compound, how does the Potency read?
The Potency was inconclusive: 4.47 µM [inhibitor, partial curve, poor fit].

With `O=C1Nc2c(Br)cccc2C1=O` as the compound, how does the Potency read?
Its Potency is inconclusive: 12.6 µM [inhibitor, single point].

For `N#C/C(=C\c1ccc(O)c(O)c1)C(=O)NCc1ccccc1`, which Potency is on record?
Its Potency is inconclusive: 3.55 µM [inhibitor, partial curve].

Which Potency does the source give for `O=C1ON=C(c2ccccc2)/C1=C/c1ccc(O)cc1` here?
The Potency was inconclusive: 28.2 µM [inhibitor, single point].

With `Cc1ccccc1OCC(=O)N/N=C/c1c(C)nn(-c2ccccc2)c1Cl` as the compound, how does the Potency read?
The Potency was “inactive”.

With `CSc1ccccc1C(=O)N1CCN(c2cccc(Cl)c2)CC1` as the compound, how does the Potency read?
The Potency was “inactive”.

Which Potency does the source give for `O=C1OC[C@H](Cc2ccc3c(c2)OCO3)/C1=C\c1ccc2c(c1)OCO2` here?
Its Potency is inconclusive: 12.6 µM [inhibitor, single point].

Which Potency does the source give for `C[C@H](CO)N1C[C@H](C)[C@H](CN(C)Cc2ccncc2)Oc2ccc(NC(=O)Nc3ccc(C(F)(F)F)cc3)cc2CC1=O` here?
The Potency was inconclusive: 11.2 µM [inhibitor, single point].

Which Potency does the source give for `CCOc1cc(/C=C2/SC(=S)N(Cc3ccccc3)C2=O)ccc1O` here?
Its Potency is inconclusive: 31.6 µM [inhibitor, single point].

Which Potency does the source give for `Cc1ccc(NC(=O)c2sc(N)nc2C)cc1` here?
The Potency was inconclusive: 7.94 µM [inhibitor, partial curve, poor fit].

For `C=CCn1c(-c2csc3c2CCC(C)C3)n[nH]c1=S` (centres undefined), which Potency is on record?
Its Potency is “inactive”.

With `Cc1csc(NC(C)c2nc3cc(C(F)(F)F)ccc3n2CCCO)n1` (centres undefined) as the compound, how does the Potency read?
The Potency was inconclusive: 3.55 µM [inhibitor, full curve, poor fit].

Which Potency does the source give for `CCN(CC)S(=O)(=O)c1ccc(N2CCOCC2)c(NC(=O)Cc2cccc3ccccc23)c1` here?
Its Potency is “inactive”.

Which Potency does the source give for `N#Cc1c(N2CCCC(O)C2)nc(N)c2c(N)nc3c(c12)CC(=O)N3C12CC3CC(CC(C3)C1)C2` (centres undefined) here?
The Potency was “inactive”.

For `N/C(=N\OC(=O)c1ccc(Cl)cc1)c1ccn[nH]1`, which Potency is on record?
The Potency was inconclusive: 5.01 µM [inhibitor, partial curve].

With `CC(C)n1cnc2c(N(C)c3ccccc3)nc(N(CCN(C)C)Cc3ccccc3)nc21` as the compound, how does the Potency read?
Its Potency is inconclusive: 14.1 µM [inhibitor, partial curve, poor fit].

Which Potency does the source give for `COc1ccc(C(=O)CSc2nc3ccccc3n2CC(=O)c2ccccc2)cc1` here?
Its Potency is “inactive”.

With `COc1ccc(C(=O)N2C(=O)c3ccc(N)cc3C2=O)cc1` as the compound, how does the Potency read?
The Potency was “inactive”.

For `CCS(=O)(=O)c1nc(S(=O)(=O)c2ccc(Cl)cc2)c(NCCOC)s1`, which Potency is on record?
The Potency was inconclusive: 7.94 µM [inhibitor, single point].

Which Potency does the source give for `N#CC1(NC(=O)CN2C(=O)NC(Cc3c[nH]c4ccccc34)C2=O)CCCCC1` (centres undefined) here?
Its Potency is “inactive”.

With `C/C(Cl)=C\Cn1c(O)c(N=NC(N)=S)c2cc(Br)ccc21` as the compound, how does the Potency read?
The Potency was inconclusive: 10 µM [inhibitor, single point].

Which Potency does the source give for `O=C(OCc1ccc([N+](=O)[O-])cc1)c1cc(S(=O)(=O)N2CCCCC2)ccc1N1CCOCC1` here?
Its Potency is inconclusive: 3.16 µM [inhibitor, partial curve, poor fit].

Which Potency does the source give for `Cc1ccc(C(=O)NN=CC(=O)c2ccccc2)c(C)c1` here?
Its Potency is inconclusive: 5.01 µM [inhibitor, single point].

With `Cc1ccc(CN2CCN(Cc3ccccc3C(F)(F)F)CC2)cc1` as the compound, how does the Potency read?
The Potency was “inactive”.

With `O=C(c1c(F)cccc1F)N1CCCC(c2nc(-c3ccc(Cl)cc3)no2)C1` (centres undefined) as the compound, how does the Potency read?
Its Potency is inconclusive: 10 µM [inhibitor, single point].

Which Potency does the source give for `CN(C)c1ccc(/C=N/NC(=O)c2ccccn2)cc1` here?
Its Potency is inconclusive: 5.62 µM [inhibitor, partial curve, poor fit].

For `Cc1nonc1CN(C)C(=O)CC1C(=O)NCCN1Cc1c(F)cccc1Cl` (centres undefined), which Potency is on record?
Its Potency is “inactive”.

With `CC(C)=CC(=O)Nc1ccc2c(c1)OCO2` as the compound, how does the Potency read?
Its Potency is inconclusive: 1.41 µM [inhibitor, partial curve, poor fit].

For `O=C(COC(=O)c1ccc(S(=O)(=O)N2CCOCC2)cc1)Nc1ccccc1F`, which Potency is on record?
Its Potency is inconclusive: 1.78 µM [inhibitor, partial curve, poor fit].

With `Cc1oc(-c2cccc3ccccc23)nc1CN1CCC[C@H]1CO` as the compound, how does the Potency read?
The Potency was “inactive”.

With `Cc1cccc(/C=N/NC(=O)Cc2ccc(Cl)cc2)c1O` as the compound, how does the Potency read?
Its Potency is inconclusive: 12.6 µM [inhibitor, single point].

For `COc1ccc(C(=O)C2CCCN(Cc3cnc(N4CCOCC4)s3)C2)cc1F` (centres undefined), which Potency is on record?
The Potency was “inactive”.

With `COc1cccc(/C=C2\SC(=S)N(CCC(=O)N3CCCCC3CCO)C2=O)c1` (centres undefined) as the compound, how does the Potency read?
Its Potency is inconclusive: 8.91 µM [inhibitor, single point].

For `Cc1ccc(/C=C2\SC(=S)N(C3CCS(=O)(=O)C3)C2=O)o1` (centres undefined), which Potency is on record?
The Potency was inconclusive: 12.6 µM [inhibitor, single point].

For `Cc1ccc(S(=O)(=O)c2nc(S(=O)(=O)c3ccc(C)cc3)c(N3CCN(CCO)CC3)s2)cc1`, which Potency is on record?
The Potency was inconclusive: 10 µM [inhibitor, single point].

Which Potency does the source give for `CC1=CC(C)(C)Nc2ccc(Cc3ccc4c(c3)C(C)=CC(C)(C)N4)cc21` here?
The Potency was inconclusive: 12.6 µM [inhibitor, single point].

For `CCC(=O)N1CCc2cc(S(=O)(=O)CCC(=O)N3CCN(c4ccc(Cl)cc4)CC3)ccc21`, which Potency is on record?
Its Potency is inconclusive: 7.94 µM [inhibitor, partial curve, poor fit].

With `COc1ccc(OC)c(-c2nnc3n2N=C(c2ccc(OC)c(OC4CCCC4)c2)CS3)c1` as the compound, how does the Potency read?
The Potency was inconclusive: 2.51 µM [inhibitor, full curve, poor fit].

Which Potency does the source give for `CCCCNc1c(N)n(CC(C)C)c(=O)[nH]c1=O` here?
The Potency was inconclusive: 2.82 µM [inhibitor, partial curve, poor fit].

With `COc1ccc(Nc2nnc(-c3ccc(O)cc3)c3ccccc23)cc1` as the compound, how does the Potency read?
The Potency was inconclusive: 5.62 µM [inhibitor, single point].

Which Potency does the source give for `CCCn1c(C(C)Nc2nc(-c3cccc(Br)c3)cs2)nc2ccccc21` (centres undefined) here?
The Potency was “inactive”.

For `CCN1CCN(Cc2ccc(NC(=O)c3cc(NC(=O)c4cc(-c5ccc(OC)cc5)n[nH]4)cc(OC)c3)cc2C(F)(F)F)CC1`, which Potency is on record?
Its Potency is inconclusive: 7.94 µM [inhibitor, single point].

For `c1ccc(-c2ccnc3nc(N4CCN(c5ccccc5)CC4)nn23)cc1`, which Potency is on record?
Its Potency is “inactive”.

Which Potency does the source give for `CC1CC(C)CN(S(=O)(=O)c2ccc(C(=O)N(C)Cc3ccccc3)cc2)C1` (centres undefined) here?
Its Potency is inconclusive: 10 µM [inhibitor, partial curve, poor fit].

For `CCc1c(C)nc(N2CCN(c3cccc(OC)c3)CC2)[nH]c1=O`, which Potency is on record?
The Potency was “inactive”.

Which Potency does the source give for `Cc1ccccc1NCc1nc2ccccc2n1C` here?
Its Potency is inconclusive: 8.91 µM [inhibitor, single point].

Which Potency does the source give for `Fc1ccc(Br)cc1C1C=C(c2cccnc2)Nc2ncnn21` (centres undefined) here?
Its Potency is inconclusive: 1 µM [inhibitor, full curve, poor fit].

With `Cc1c(OCC(=O)N2CCC[C@@H]2C(=O)O)ccc2c3c(c(=O)oc12)CCC3` as the compound, how does the Potency read?
The Potency was “inactive”.

With `CCN(CC)CCCNC(=O)c1ccc2c3n(nc2c1)-c1ccc(Cl)cc1CO3` as the compound, how does the Potency read?
The Potency was inconclusive: 8.91 µM [inhibitor, partial curve, poor fit].

For `COc1ccc(-n2ncc3c(NCc4cccnc4)ncnc32)cc1`, which Potency is on record?
The Potency was inconclusive: 12.6 µM [inhibitor, single point].

For `CCCCSc1nnc(-c2c[nH]c3ccccc23)n1C`, which Potency is on record?
Its Potency is inconclusive: 3.98 µM [inhibitor, partial curve, poor fit].

For `Cc1ccc(/C=N/NC(=O)c2c[nH]c3ccccc23)o1`, which Potency is on record?
Its Potency is inconclusive: 3.16 µM [inhibitor, full curve, poor fit].

With `CSc1ccccc1C(=O)N1CCCC(CCC(=O)NCc2ccc(F)c(F)c2)C1` (centres undefined) as the compound, how does the Potency read?
Its Potency is inconclusive: 7.08 µM [inhibitor, partial curve, poor fit].

Which Potency does the source give for `CC(C)(C)c1ccc(OCC(O)CS(=O)(=O)c2ccccn2)cc1` (centres undefined) here?
Its Potency is inconclusive: 7.08 µM [inhibitor, partial curve, poor fit].

For `Nc1ccc(OCc2ccccc2)cc1`, which Potency is on record?
Its Potency is inconclusive: 11.2 µM [inhibitor, partial curve, poor fit].

With `C[C@H](NC(=O)c1nc[nH]c1C(=O)NCc1ccc(CNC(=O)OC(C)(C)C)cc1)c1ccccc1` as the compound, how does the Potency read?
Its Potency is inconclusive: 22.4 µM [inhibitor, single point].

For `CN(C)CCCN(C(=O)c1ccc([N+](=O)[O-])s1)c1nc2cc3c(cc2s1)OCCO3`, which Potency is on record?
The Potency was inconclusive: 8.91 µM [inhibitor, single point].

With `COc1ccccc1CN(C)CC(=O)Nc1cccc(S(=O)(=O)N2CCCCC2)c1` as the compound, how does the Potency read?
Its Potency is inconclusive: 8.91 µM [inhibitor, partial curve, poor fit].
